Variants at the background level are over-represented here.
Key:
[1] = test system: biotinyl-Leu-oxazolone; test: self-aminoacylation, catalytic enhancement (BLO) (fold over background); higher = more active; k-Seq, kA / k0A0; sequences stand for … in GGGAAUGGAUCCACAUCUACGAAUUC…UUCACUGCAGACUUGACGAAGCUG
Procedure, shortened: (§1)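 Catalytic enhancement equals the median kA over the uncatalyzed rate, the latter read from the low-activity peak of a bimodal Gaussian fit. Values of kA came from fitting each sequence's fraction reacted to a pseudo-first-order model, with 1000 bootstraps. Reacted RNA was captured with streptavidin and quantified by triplicate qPCR and Illumina sequencing after 90 minutes at room temperature with 2–1250 μM biotinyl-aminoacyl-oxazolone and 0.43 μM mutagenized RNA pools bearing a 21-nt variable region.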

[2] = test system: biotinyl-Trp-oxazolone; test: self-aminoacylation, catalytic enhancement (BWO) (fold over background); higher = more active; k-Seq, kA / k0A0; sequences stand for … in GGGAAUGGAUCCACAUCUACGAAUUC…UUCACUGCAGACUUGACGAAGCUG
Procedure, shortened: as §1

[3] = test system: biotinyl-Val-oxazolone; test: self-aminoacylation, catalytic enhancement (BVO) (fold over background); higher = more active; k-Seq, kA / k0A0; sequences stand for … in GGGAAUGGAUCCACAUCUACGAAUUC…UUCACUGCAGACUUGACGAAGCUG
Procedure, shortened: as §1

[4] = test system: biotinyl-Met-oxazolone; test: self-aminoacylation, catalytic enhancement (BMO) (fold over background); higher = more active; k-Seq, kA / k0A0; sequences stand for … in GGGAAUGGAUCCACAUCUACGAAUUC…UUCACUGCAGACUUGACGAAGCUG
Procedure, shortened: as §1

[5] = test system: biotinyl-Ile-oxazolone; test: self-aminoacylation, catalytic enhancement (BIO) (fold over background); higher = more active; k-Seq, kA / k0A0; sequences stand for … in GGGAAUGGAUCCACAUCUACGAAUUC…UUCACUGCAGACUUGACGAAGCUG
Procedure, shortened: as §1

[6] = test system: biotinyl-Phe-oxazolone; test: self-aminoacylation, catalytic enhancement (BFO) (fold over background); higher = more active; k-Seq, kA / k0A0; sequences stand for … in GGGAAUGGAUCCACAUCUACGAAUUC…UUCACUGCAGACUUGACGAAGCUG
Procedure, shortened: as §1

Row | Sequence | self-aminoacylation [1] | self-aminoacylation [2] | self-aminoacylation [3] | self-aminoacylation [4] | self-aminoacylation [5] | self-aminoacylation [6]
1 | CUGCUUCAAACAAACGGUCUG [Fam1A.1 aminoacylation ribozyme variant] | 0.566 | 0.373 | 0.709 | 0.695 | 0.647 | 0.645
2 | CUGCUUCAAACAAUCGGUCUC [Fam1A.1 aminoacylation ribozyme variant] | 2.47 | 46 | 1.38 | 1.64 | 1.29 | 107
3 | CUGCUUCGAACAAUCGGUCUG [Fam1A.1 aminoacylation ribozyme variant] | 0.787 | 0.843 | 0.77 | 0.779 | 0.727 | 1.36
4 | CUGCUUCUAACAAUCGGUCUG [Fam1A.1 aminoacylation ribozyme variant] | 0.546 | 0.445 | 0.626 | 0.571 | 0.691 | 0.632
5 | CUUACCCUGGUCAUCGAGAGA [Fam2.1 aminoacylation ribozyme variant] | 0.977 | 0.64 | 1.07 | 0.854 | 0.88 | 0.65
6 | CUUACCCUGUUCAUCGAGUGA [Fam2.1 aminoacylation ribozyme variant] | 4.33 | 6.94 | 2.86 | 4.32 | 2.29 | 7.83
7 | CUUCACCUAGGUCAUAGGGUG [Fam2.2 aminoacylation ribozyme variant] | 1.6 | 1.79 | 1.29 | 1.39 | 1.35 | 1.66
8 | CUUCACCUAGGUCAUCGGGUG [Fam2.2 aminoacylation ribozyme variant] | 9 | 6.65 | 5.18 | 7.51 | 4.63 | 34.6
9 | CUUCUUCAAACAAUGGGUCUG [Fam1A.1 aminoacylation ribozyme variant] | 0.979 | 0.646 | 1.01 | 1.01 | 1.16 | 1.02
10 | CUUCUUCAAACGAUCGGUCUG [Fam1A.1 aminoacylation ribozyme variant] | 0.915 | 0.947 | 0.784 | 0.858 | 0.71 | 1.02
11 | GAGCUUGCUAAUAGUCGCAAG [Fam3.1 aminoacylation ribozyme variant] | 1.56 | 2.4 | 2.02 | 2.03 | 1.93 | 4.81
12 | GAGUUUGAUAAUAGUCGCAAG [Fam3.1 aminoacylation ribozyme variant] | 1.08 | 1.9 | 1.42 | 1.28 | 1.55 | 1.88
13 | GAGUUUGCUAAUAGGCGCAAG [Fam3.1 aminoacylation ribozyme variant] | 1.02 | 1.35 | 0.836 | 0.961 | 0.982 | 1.4
14 | GAGUUUGCUAAUAGUGGCAAG [Fam3.1 aminoacylation ribozyme variant] | 0.652 | 1 | 0.738 | 0.767 | 0.929 | 0.97
15 | GCACACUUCAAGCAAUCGAUC [Fam1B.1 aminoacylation ribozyme variant] | 0.669 | 0.861 | 0.907 | 0.715 | 0.744 | 1.43
16 | GUACUUCAAACACUCGGUCUG [Fam1A.1 aminoacylation ribozyme variant] | 1.64 | 1.91 | 1.3 | 1.31 | 1.5 | 5.9
17 | GUACUUCAGACAAUCGGUCUG [Fam1A.1 aminoacylation ribozyme variant] | 1.32 | 1.56 | 1.06 | 1.2 | 1.22 | 4.98
18 | GUACUUCAUACAAUCGGUCUG [Fam1A.1 aminoacylation ribozyme variant] | 1.25 | 1.4 | 1.13 | 1.17 | 1.4 | 1.96

Row | Sequence | self-aminoacylation [1] | self-aminoacylation [2] | self-aminoacylation [3] | self-aminoacylation [4] | self-aminoacylation [5] | self-aminoacylation [6]
19 | GUACUUCCAACAAUCGGUCUG [Fam1A.1 aminoacylation ribozyme variant] | 1.25 | 1.33 | 1.2 | 1.07 | 1.3 | 2
20 | GUUCACCUAGGUCAGCGGGUG [Fam2.2 aminoacylation ribozyme variant] | 4.21 | 4.42 | 3.23 | 4.02 | 2.92 | 26.1
21 | GUUCACCUAGGUCAUCGGGUC [Fam2.2 aminoacylation ribozyme variant] | 1.36 | 0.681 | 1.34 | 1.03 | 1.28 | 1.16
22 | UAGUUUGCUAAUAGGCGCAAG [Fam3.1 aminoacylation ribozyme variant] | 0.854 | 0.869 | 0.979 | 0.882 | 1.17 | 1.38
23 | UAGUUUGCUAAUAGUAGCAAG [Fam3.1 aminoacylation ribozyme variant] | 0.846 | 1.02 | 1.1 | 1.12 | 1.12 | 1.53
24 | UAGUUUGCUAAUAGUCGCACG [Fam3.1 aminoacylation ribozyme variant] | 1.42 | 1.57 | 1.04 | 0.875 | 1.13 | 1.57
25 | UAGUUUGCUAAUAGUCGGAAG [Fam3.1 aminoacylation ribozyme variant] | 0.963 | 2.37 | 1.22 | 1.13 | 1.01 | 6.04
26 | UAGUUUGCUAAUAGUUGCAAG [Fam3.1 aminoacylation ribozyme variant] | 1.27 | 1.3 | 1.04 | 1.33 | 1.3 | 1.87
27 | UAGUUUGCUAUUAGUCGCAAG [Fam3.1 aminoacylation ribozyme variant] | 1.18 | 1.55 | 1.32 | 1 | 1.4 | 1.69
28 | UCACACAUCAAGCAAUCGGUC [Fam1B.1 aminoacylation ribozyme variant] | 0.72 | 0.855 | 0.999 | 0.821 | 0.82 | 1.33
29 | UCACACUACAAGCAAUCGGUC [Fam1B.1 aminoacylation ribozyme variant] | 0.846 | 0.924 | 0.883 | 0.685 | 0.867 | 1.22
30 | UCACACUGCAAGCAAUCGGUC [Fam1B.1 aminoacylation ribozyme variant] | 0.979 | 0.709 | 1.21 | 0.998 | 1.13 | 1.26
31 | UCACACUUCAGGCAAUCGGUC [Fam1B.1 aminoacylation ribozyme variant] | 1.32 | 1.34 | 1.39 | 1.36 | 1.31 | 1.39
32 | UUACUUAAAACAAUCGGUCUG [Fam1A.1 aminoacylation ribozyme variant] | 1.06 | 1.02 | 0.963 | 1.24 | 1.09 | 1.33
33 | UUUCACCUAGGUCAUCGGAUG [Fam2.2 aminoacylation ribozyme variant] | 0.998 | 1.12 | 1.36 | 0.898 | 1.1 | 0.842
34 | UUUCACCUAGGUCAUCGGGAG [Fam2.2 aminoacylation ribozyme variant] | 1.82 | 2.02 | 1.35 | 1.73 | 1.68 | 1.4
35 | UUUGACCUAGGUCAUCGGGUG [Fam2.2 aminoacylation ribozyme variant] | 5.93 | 6.51 | 4.23 | 4.5 | 4.3 | 26.6

From the supplement of paper PMC9233669
